Experimental data reported in PMC7515635 (2020).

B1: HIS6-AtC53 [Arabidopsis thaliana] / GST-ATG8A [Arabidopsis thaliana] (parent complex)
chain 1: MPSQDDVQNLPIDITFSRLGEWLVDRKRIPADWRKRVAVIRVKILKEFSSLPKEIDPFFQTLDPEVIGYLEVKKVYEILLKTTPESRNIFGRLSGASGVWEAIVRAFEKDHIYLGEAAQIIIQNVNYEIPYLKKQVQKVQQQMTELDRKEADIKRSVALSATKYEDACRELGLQGNNVRRELLETASSLPSTFSKILEVINSDSVTGAMEYYSAYVQDVHTEKDKPLRIVLQNLKYIRENPPSLSVFGDSEGLDADNIQSSENANGTDAAADSIDWDITVETPEIDWDVSMVEEVDSGNDLGSYEIVNASDIPENSPFKVEESQGLEVDVSEISWDVSVETPQVEEIGDSALLESNQTQLTDSTTQVLGSGGERSQLLETEYRNKILDDLYEVKAFLNQRLIELRNEDTLSLQHHVQAVSPMVLQQYSPETIEPMVVDISMAISLLTNKKSRDLIMILNSKRFLDRLVSELEEKKHREVKLRESLKDVGRRRMELQNSLSAIWPKQEAALSKTRELKELCETSLSSMFDGRPVNIRGEINTLLNAGVSA
chain 2: MAKSSFKISNPLEARMSESSRIREKYPDRIPVIVEKAGQSDVPDIDKKKYLVPADLTVGQFVYVVRKRIKLGAEKAIFVFVKNTLPPTAALMSAIYEEHKDEDGFLYMTYSGENTFG

Variants of: B1
Assay: SPR; 10 µM C53 premixed with buffer (0 nM AIM wt); GST-ATG8A captured at 500 RU, GST reference 300 RU; response read at end of injection (60 s); read off a plot
Work on chain 1 W276A, chain 1 W287A, chain 1 Y304A, chain 1 W335A yielded a response of roughly 35 RU.
